At least one structure is not confirmed: it was looked up by name or label, or the drawing left a doubt.
System: PD-L1 expression on NK cells
Assay: PD-L1 expression on NK cells incubated with K562 cells in the presence of pathway inhibitors
Format: cell-based, human
Settings: inhibitor 1 μM or 10 μM, FIGS. 6B, 6C
Method: FIGS. 6A-6J present data showing signaling pathways activating PD-L1^+ NK cells. […] “D1+” represents PD-L1^+ NK cells from donor 1, while “D1−” represents PD-L1^− NK cells from donor 1, each purified by FACS sorting. Similar definitions are applied to “D2+”, “D2−”, “D3+”, and “D3−”. Expression of Cd274 (PD-L1), Cd226, Tbx21, Eomes, Smad3 and Aka are highlighted by black arrows. […] The percentages of PD-L1+ NK cells were measured by flow cytometry. […] Data were generated from five (5) independent donors, and the experiment was repeated three times. […] Relative promoter activity was measured by luciferase assay after 48 hours. […] The experiments were repeated three times. […] The experiments were repeated three times.
To investigate mechanisms by which PD-L1 is induced in NK cells by myeloid leukemia cells, an RNA microarray was performed to profile gene expression in PD-L1^+ NK cells vs PD-L1^− NK cells, both of which were FACS-purified from bulk NK cells after being co-cultured with K562 cells. […] They were subsequently incubated with K562 myeloid leukemia cells and then PD-L1 expression on NK cells was measured. […] A PD-L1 promoter was cloned 2.1 kb upstream of the transcription start site, co-transfected with genes for specific transcription factors in 293T cells, and the activity of the PD-L1 promoter was measured by luciferase assay. […]

## COC[C@H]1OC(=O)c2coc3c2[C@@]1(C)C1=C(C3=O)[C@@H]2CCC(=O)[C@@]2(C)C[C@H]1OC(C)=O [wortmannin]
  PD-L1 expression on NK cells: significantly reduced
